Source: the supplement of paper PMC4604168 (melanoma cell lines)
This is one part of the list. Repeats are few or missing, and single values can be far off.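 Imaging used 1,536-well plates; nuclei positive for cleaved PARP by antibody were divided by total DNA-stained nuclei to yield the apoptosis fraction. Doses for screening kept most cells viable, and cell lines differ markedly in resting and induced cleaved-PARP levels.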

Tests used:
Assay in all cases: cleaved PARP positive nuclei fraction relative to DMSO control; melanoma cells; higher = more apoptosis
Conditions in all cases: library dose: low library concentration; 72 h
MeWo = tested on: MeWo
RPMI7951 = tested on: RPMI7951
RVH-421 = tested on: RVH-421
SkMel28 = tested on: SkMel28
SkMel30 = tested on: SkMel30
SkMel5 = tested on: SkMel5
UACC257 = tested on: UACC257
UACC62 = tested on: UACC62

| SMILES | cleaved PARP positive nuclei fraction (MeWo) | cleaved PARP positive nuclei fraction (RPMI7951) | cleaved PARP positive nuclei fraction (RVH-421) | cleaved PARP positive nuclei fraction (SkMel28) | cleaved PARP positive nuclei fraction (SkMel30) | cleaved PARP positive nuclei fraction (SkMel5) | cleaved PARP positive nuclei fraction (UACC257) | cleaved PARP positive nuclei fraction (UACC62) |
| --- | --- | --- | --- | --- | --- | --- | --- | --- |
| Cc1nc(Nc2ncc(C(=O)Nc3c(C)cccc3Cl)s2)cc(N2CCN(CCO)CC2)n1 [dasatanib] + O=C(Oc1ccc([N+](=O)[O-])cc1)N1CCC(C(O)(c2ccc3c(c2)OCO3)c2ccc3c(c2)OCO3)CC1 [JZL184] (first compound 0.004 µM, partner dose 1 µM) | 61.2% | 108% | 102% | 121% | 58% | 65.9% | 165% | 190% |
| Cn1cc(C2=C(c3cn(C4CCN(Cc5ccccn5)CC4)c4ccccc34)C(=O)NC2=O)c2ccccc21 [Enzastaurin] + CC(C)(C)c1cnc(CSc2cnc(NC(=O)C3CCNCC3)s2)o1 [SNS-032] (first compound 0.8 µM, partner dose 0.01 µM) | 196% | 72.6% | 143% | 80.9% | 61.9% | 61.8% | 128% | 149% |
| C[C@]12O[C@H](C[C@]1(O)CO)n1c3ccccc3c3c4c(c5c6ccccc6n2c5c31)CNC4=O [Lestaurtinib] + Cn1nnc2c(C(N)=O)ncn2c1=O [temozolomide] (first compound 0.004 µM, partner dose 2 µM) | 29.9% | 53.4% | 77.6% | 99.7% | 225% | – | – | 177% |
| Nc1ccn([C@@H]2O[C@H](CO)[C@@H](O)C2(F)F)c(=O)n1 [gemcitabine] + Cc1cc(SCc2sc(-c3ccc(C(F)(F)F)c(F)c3)nc2C)ccc1OCC(=O)O [GW0742] (first compound 0.0004 µM, partner dose 2 µM) | 101% | 83% | 115% | 162% | 78.5% | 81.8% | 180% | 110% |
| O=C(Nc1cccc(Cl)c1)Nc1ncc(CCNc2ncnc3ccsc23)s1 + C/C(O)=C(\C#N)C(=O)Nc1cc(Br)ccc1Br [LFM-A13] (first compound 0.0008 µM, partner dose 2 µM) | 113% | 139% | 108% | 166% | 242% | 126% | 82.7% | 47.1% |
| C[As](C)SC[C@H](NC(=O)CC[C@H](N)C(=O)O)C(=O)NCC(=O)O [Darinaparsin] + COc1ccc(-c2ccc3c(N4CCOCC4)nc(N4C[C@@H](C)O[C@@H](C)C4)nc3n2)cc1CO [KU0063794] (first compound 0.4 µM, partner dose 0.02 µM) | 171% | 106% | 129% | 93.4% | 162% | 198% | 66.2% | 241% |
| Cn1cncc1[C@@](N)(c1ccc(Cl)cc1)c1ccc2c(c1)c(-c1cccc(Cl)c1)cc(=O)n2C [tipifarnib] + C/C(O)=C(\C#N)C(=O)Nc1cc(Br)ccc1Br [LFM-A13] (first compound 0.01 µM, partner dose 2 µM) | 203% | 82.2% | 65.3% | 121% | 49.3% | 184% | 94.8% | 68.8% |
| C[C@]12O[C@H](C[C@]1(O)CO)n1c3ccccc3c3c4c(c5c6ccccc6n2c5c31)CNC4=O [Lestaurtinib] + C[As](C)SC[C@H](NC(=O)CC[C@H](N)C(=O)O)C(=O)NCC(=O)O [Darinaparsin] (first compound 0.004 µM, partner dose 0.4 µM) | 22.4% | 152% | 49.9% | 144% | 23.5% | – | – | 147% |
| C[C@]12O[C@H](C[C@]1(O)CO)n1c3ccccc3c3c4c(c5c6ccccc6n2c5c31)CNC4=O [Lestaurtinib] + OCCn1cc(-c2cnc3nnn(Cc4ccc5ncccc5c4)c3n2)cn1 [PF04217903] (first compound 0.004 µM, partner dose 1 µM) | 72.4% | 76.9% | 93% | 117% | 74.5% | 63.8% | 85.6% | 78.9% |
| C[C@]12O[C@H](C[C@]1(O)CO)n1c3ccccc3c3c4c(c5c6ccccc6n2c5c31)CNC4=O [Lestaurtinib] + C[C@@H](Oc1cc(-c2cnn(C3CCNCC3)c2)cnc1N)c1c(Cl)ccc(F)c1Cl [Crizotinib] (first compound 0.004 µM, partner dose 0.2 µM) | 88.9% | 199% | 177% | 18.9% | 314% | – | – | 93.6% |
| Cc1cc(Nc2cc(N3CCN(C)CC3)nc(Sc3ccc(NC(=O)C4CC4)cc3)n2)n[nH]1 [Tozasertib] + Cc1cc(SCc2sc(-c3ccc(C(F)(F)F)c(F)c3)nc2C)ccc1OCC(=O)O [GW0742] (first compound 0.006 µM, partner dose 2 µM) | 44% | 130% | 57.5% | 189% | 87.5% | 144% | 93.3% | 126% |
| C[As](C)SC[C@H](NC(=O)CC[C@H](N)C(=O)O)C(=O)NCC(=O)O [Darinaparsin] + C/C(O)=C(\C#N)C(=O)Nc1cc(Br)ccc1Br [LFM-A13] (first compound 0.4 µM, partner dose 2 µM) | 119% | 85.1% | 19.7% | 163% | 37.6% | 80.8% | 115% | 91.3% |
| O=C(O)c1ccc2c(c1)nc(Nc1cccc(Cl)c1)c1ccncc12 + C/C(O)=C(\C#N)C(=O)Nc1cc(Br)ccc1Br [LFM-A13] (first compound 0.4 µM, partner dose 2 µM) | 87.1% | 176% | 39.5% | 167% | 44.8% | 41.5% | 314% | 119% |
| N.N.[Cl][Pt][Cl] [cisplatin] + C=CCn1c(=O)c2cnc(Nc3ccc(N4CCN(C)CC4)cc3)nc2n1-c1cccc(C(C)(C)O)n1 [MK1775] (first compound 1.6 µM, partner dose 0.02 µM) | 154% | 150% | 79.2% | 159% | 73.3% | 73% | 126% | 199% |
| Cn1cc(C2=C(c3cn(C4CCN(Cc5ccccn5)CC4)c4ccccc34)C(=O)NC2=O)c2ccccc21 [Enzastaurin] + NC1(c2ccc(-c3nc4ccn5c(=O)[nH]nc5c4cc3-c3ccccc3)cc2)CCC1 [MK2206] (first compound 0.8 µM, partner dose 0.4 µM) | 160% | 117% | 59.1% | 46.2% | 56.8% | – | – | 96.5% |
| Cn1cc(C2=C(c3cn(C4CCN(Cc5ccccn5)CC4)c4ccccc34)C(=O)NC2=O)c2ccccc21 [Enzastaurin] + CC(=O)O[C@@]12CO[C@@H]1C[C@H](O)[C@@]1(C)C(=O)[C@H](O)C3=C(C)[C@@H](OC(=O)[C@H](O)[C@@H](NC(=O)OC(C)(C)C)c4ccccc4)C[C@@](O)([C@@H](OC(=O)c4ccccc4)[C@H]21)C3(C)C [Docetaxel] (first compound 0.8 µM, partner dose 0.0001 µM) | 611% | 232% | 84.6% | 167% | 349% | – | – | 337% |

An excerpt from above with just cleaved PARP positive nuclei fraction (RVH-421).
SMILES,cleaved PARP positive nuclei fraction (RVH-421)
"Cn1cc(C2=C(c3cn(C4CCN(Cc5ccccn5)CC4)c4ccccc34)C(=O)NC2=O)c2ccccc21 [Enzastaurin] + NC1(c2ccc(-c3nc4ccn5c(=O)[nH]nc5c4cc3-c3ccccc3)cc2)CCC1 [MK2206] (first compound 0.8 µM, partner dose 0.4 µM)",59.1%
"Cn1cc(C2=C(c3cn(C4CCN(Cc5ccccn5)CC4)c4ccccc34)C(=O)NC2=O)c2ccccc21 [Enzastaurin] + CC(=O)O[C@@]12CO[C@@H]1C[C@H](O)[C@@]1(C)C(=O)[C@H](O)C3=C(C)[C@@H](OC(=O)[C@H](O)[C@@H](NC(=O)OC(C)(C)C)c4ccccc4)C[C@@](O)([C@@H](OC(=O)c4ccccc4)[C@H]21)C3(C)C [Docetaxel] (first compound 0.8 µM, partner dose 0.0001 µM)",84.6%
